Assay results as given in PMC12378768.
Results are given in words; binding and its absence hold for the method and conditions named. Binding seen in cells or lysates may run through a third protein. These calls come from enrichment with a bait or labelling near it, and not all partners need be listed. Where a sequence is shown, tags or fusion partners need not be part of it.

The chains behind the UniProt entries cited, without tags or fusion partners.
UniProt P35222: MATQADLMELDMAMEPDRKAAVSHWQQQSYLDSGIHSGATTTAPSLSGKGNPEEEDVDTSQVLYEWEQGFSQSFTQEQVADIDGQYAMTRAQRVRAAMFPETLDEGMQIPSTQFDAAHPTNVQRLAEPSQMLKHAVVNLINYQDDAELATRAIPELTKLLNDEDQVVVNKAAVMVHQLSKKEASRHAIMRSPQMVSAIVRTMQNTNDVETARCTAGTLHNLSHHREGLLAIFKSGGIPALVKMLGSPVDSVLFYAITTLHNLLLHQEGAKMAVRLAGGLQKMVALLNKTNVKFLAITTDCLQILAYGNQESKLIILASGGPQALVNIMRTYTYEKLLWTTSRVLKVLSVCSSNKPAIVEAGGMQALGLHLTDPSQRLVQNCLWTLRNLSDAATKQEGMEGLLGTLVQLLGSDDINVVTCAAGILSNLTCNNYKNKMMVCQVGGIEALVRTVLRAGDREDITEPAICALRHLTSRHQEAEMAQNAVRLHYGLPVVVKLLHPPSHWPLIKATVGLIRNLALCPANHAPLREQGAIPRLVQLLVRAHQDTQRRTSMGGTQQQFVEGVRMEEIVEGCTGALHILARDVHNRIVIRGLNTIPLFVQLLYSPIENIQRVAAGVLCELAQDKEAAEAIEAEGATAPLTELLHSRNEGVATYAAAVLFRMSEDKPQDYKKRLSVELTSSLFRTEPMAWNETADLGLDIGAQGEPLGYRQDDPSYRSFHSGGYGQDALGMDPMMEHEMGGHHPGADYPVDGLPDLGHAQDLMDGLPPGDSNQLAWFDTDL

Molecular target: T1, KCTD10 (potassium channel tetramerisation domain-containing 10), Flag-tagged, stably overexpressed in A549 cells (UniProt Q9H3F6)
T1 sequence: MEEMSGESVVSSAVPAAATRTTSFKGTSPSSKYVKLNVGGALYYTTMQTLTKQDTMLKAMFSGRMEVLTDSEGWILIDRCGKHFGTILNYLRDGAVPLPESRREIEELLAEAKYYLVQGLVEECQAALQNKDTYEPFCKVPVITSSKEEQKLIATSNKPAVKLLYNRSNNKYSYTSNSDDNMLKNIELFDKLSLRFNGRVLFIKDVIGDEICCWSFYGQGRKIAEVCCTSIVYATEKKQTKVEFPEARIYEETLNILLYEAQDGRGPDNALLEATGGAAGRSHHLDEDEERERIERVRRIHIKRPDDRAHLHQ
Experiment: affinity purification with mass spectrometry; immunoprecipitation with anti-Flag-tag antibody or IgG from KCTD10-overexpressing A549 cells; 10% SDS-PAGE, silver stain, mass spectrometry of differential bands

binding: binds
Substance: β-catenin (cadherin-associated protein, beta 1), endogenous (from UniProt P35222 1-781)
